In the supplement of paper PMC9549374:
Some of the results follow. Rule as the data show it: active = 2-fold of DMSO or more and inactive = the rest. Single values of this set are uncertain. Some low values are a fixed figure set by the source, not a measured ratio.

tested on: CM7/1-hgem mouse ES cell-derived cardiomyocytes; test: maximal number of mAG-hGem(1/110)-positive cardiomyocytes over 96 h, fold-change vs DMSO; higher = more cardiomyocyte cell cycle activity; details: 1 µM; 96 (max over 12 h time points) h

Compound | maximal number
NC(=O)CN1CCCC1=O | inactive: 1
CC(C)=CCCC1(C)C=Cc2c(O)c3c(c(CC=C(C)C)c2O1)OC12C(CC4CC1C(C)(C)OC2(C/C=C(/C)C(=O)O)C4O)C3=O (stereo not drawn) | inactive: 1
CNc1ccccc1C(=O)O | active: 2
